# Reference: PubChem BioAssay AID1224830 (NIAID, 2016)
# Screen: 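Regulators of TLR4 signalling towards TNF-alpha in macrophage-like cells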 (primary screen)
# Cells: human THP-1 monocytic leukaemia cells, TNF dual-luciferase reporter clone, PMA-differentiated to macrophage-like cells
# Reagents: siRNA pool against human genes, 50 nM
# Time to read-out: LPS for 4 h, given about 3 days after siRNA transfection
# Treatment: bacterial LPS (TLR4 ligand), 10 ng/ml
# Detection: 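Ratio of firefly to renilla light, scaled to the plate median and expressed as a robust z-score per replicate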
# Reading the numbers: TNF reporter robust z-score: higher = stronger TNF reporter response to LPS
# Hit rule: 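Each well counts as active if its z-score is over 2.8 or under -1.5; controls are left without a call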
# Shown is a random part of about 18,000 deposited reagents. About 2,900 of them (16%) were called active. 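Calls are made per well; low scores hint the gene aids the LPS response, high scores that it dampens it.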 A number with no mark means an inactive call. Repeated entries: four replicate wells of each siRNA pool.
target gene,PubChem SID,TNF reporter robust z-score
SULT6B1 (GeneID 391365),SID315464688,-0.18
SULT6B1 (GeneID 391365),SID315464688,-0.42
SULT6B1 (GeneID 391365),SID315464688,-0.44
SULT6B1 (GeneID 391365),SID315464688,0.15
STAG2 (GeneID 10735),SID315454323,-0.47
STAG2 (GeneID 10735),SID315454323,-0.07
STAG2 (GeneID 10735),SID315454323,-0.99
STAG2 (GeneID 10735),SID315454323,-0.64
CAT (GeneID 847),SID315447714,1.09
CAT (GeneID 847),SID315447714,1.7
CAT (GeneID 847),SID315447714,1.78
CAT (GeneID 847),SID315447714,3.61 (active)
GTSE1 (GeneID 51512),SID315456750,0.15
GTSE1 (GeneID 51512),SID315456750,-0.86
GTSE1 (GeneID 51512),SID315456750,-1.99 (active)
GTSE1 (GeneID 51512),SID315456750,-1.29
SRY (GeneID 6736),SID315451643,1.49
SRY (GeneID 6736),SID315451643,2.48
SRY (GeneID 6736),SID315451643,0.99
SRY (GeneID 6736),SID315451643,2.87 (active)
ZNF20 (GeneID 7568),SID315452203,-0.34
ZNF20 (GeneID 7568),SID315452203,-0.98
ZNF20 (GeneID 7568),SID315452203,-2.03 (active)
ZNF20 (GeneID 7568),SID315452203,-1.14
TINAG (GeneID 27283),SID315456004,0.36
TINAG (GeneID 27283),SID315456004,-0.01
TINAG (GeneID 27283),SID315456004,1.55
TINAG (GeneID 27283),SID315456004,0.41

Continued; the last 7 above are carried over.
target gene,PubChem SID,TNF reporter robust z-score
ZNF20 (GeneID 7568),SID315452203,-0.98
ZNF20 (GeneID 7568),SID315452203,-2.03 (active)
ZNF20 (GeneID 7568),SID315452203,-1.14
TINAG (GeneID 27283),SID315456004,0.36
TINAG (GeneID 27283),SID315456004,-0.01
TINAG (GeneID 27283),SID315456004,1.55
TINAG (GeneID 27283),SID315456004,0.41
ASB12 (GeneID 142689),SID315462170,-0.82
ASB12 (GeneID 142689),SID315462170,-1.9 (active)
ASB12 (GeneID 142689),SID315462170,-1.52 (active)
ASB12 (GeneID 142689),SID315462170,-0.66
AS3MT (GeneID 57412),SID315458375,-1.16
AS3MT (GeneID 57412),SID315458375,0.04
AS3MT (GeneID 57412),SID315458375,-0.92
AS3MT (GeneID 57412),SID315458375,-0.54
KIF9 (GeneID 64147),SID315458850,0.43
KIF9 (GeneID 64147),SID315458850,0.08
KIF9 (GeneID 64147),SID315458850,0.64
KIF9 (GeneID 64147),SID315458850,-0.6
LOC728919 (retired record) (GeneID 728919),SID315465203,1.98
LOC728919 (retired record) (GeneID 728919),SID315465203,1.85
LOC728919 (retired record) (GeneID 728919),SID315465203,3 (active)
LOC728919 (retired record) (GeneID 728919),SID315465203,1.21
OLFM2 (GeneID 93145),SID315461061,-1.51 (active)
OLFM2 (GeneID 93145),SID315461061,-0.46
OLFM2 (GeneID 93145),SID315461061,-0.7
OLFM2 (GeneID 93145),SID315461061,-0.17
TBC1D3F (GeneID 84218),SID315460243,0.71
TBC1D3F (GeneID 84218),SID315460243,-0.84
TBC1D3F (GeneID 84218),SID315460243,-0.41
TBC1D3F (GeneID 84218),SID315460243,0.45
SOX3 (GeneID 6658),SID315451581,-1.07
SOX3 (GeneID 6658),SID315451581,0.16
SOX3 (GeneID 6658),SID315451581,0.88
SOX3 (GeneID 6658),SID315451581,1.03
LARP4B (GeneID 23185),SID315455053,-1.19
LARP4B (GeneID 23185),SID315455053,-0.83
LARP4B (GeneID 23185),SID315455053,-1.59 (active)
LARP4B (GeneID 23185),SID315455053,-1.32
KRTAP4-12 (GeneID 83755),SID315460083,-0.45
KRTAP4-12 (GeneID 83755),SID315460083,-0.01
KRTAP4-12 (GeneID 83755),SID315460083,0.53
KRTAP4-12 (GeneID 83755),SID315460083,0.62
NME5 (GeneID 8382),SID315452524,-0.28
NME5 (GeneID 8382),SID315452524,-0.49
NME5 (GeneID 8382),SID315452524,-0.09
NME5 (GeneID 8382),SID315452524,0.22
TSPAN1 (GeneID 10103),SID315453821,3.48 (active)
TSPAN1 (GeneID 10103),SID315453821,-0.53
TSPAN1 (GeneID 10103),SID315453821,-0.24
TSPAN1 (GeneID 10103),SID315453821,0.07
ANKRD34B (GeneID 340120),SID315464065,-0.78
ANKRD34B (GeneID 340120),SID315464065,-0.14
ANKRD34B (GeneID 340120),SID315464065,1.39
